Our source for the binding values is paper PMC4606566.

Results are given in words; binding and its absence hold for the method and conditions named. In cells and extracts the contact can be indirect. For some assays here: A result given as binding can be weak or reduced; the word gives no strength.

Assay [1] has as its target T1, PIMT (PRIP Interacting protein with Methyl Transferase domain) (rat (endogenous in L6)) (UniProt P85107).
T1 sequence: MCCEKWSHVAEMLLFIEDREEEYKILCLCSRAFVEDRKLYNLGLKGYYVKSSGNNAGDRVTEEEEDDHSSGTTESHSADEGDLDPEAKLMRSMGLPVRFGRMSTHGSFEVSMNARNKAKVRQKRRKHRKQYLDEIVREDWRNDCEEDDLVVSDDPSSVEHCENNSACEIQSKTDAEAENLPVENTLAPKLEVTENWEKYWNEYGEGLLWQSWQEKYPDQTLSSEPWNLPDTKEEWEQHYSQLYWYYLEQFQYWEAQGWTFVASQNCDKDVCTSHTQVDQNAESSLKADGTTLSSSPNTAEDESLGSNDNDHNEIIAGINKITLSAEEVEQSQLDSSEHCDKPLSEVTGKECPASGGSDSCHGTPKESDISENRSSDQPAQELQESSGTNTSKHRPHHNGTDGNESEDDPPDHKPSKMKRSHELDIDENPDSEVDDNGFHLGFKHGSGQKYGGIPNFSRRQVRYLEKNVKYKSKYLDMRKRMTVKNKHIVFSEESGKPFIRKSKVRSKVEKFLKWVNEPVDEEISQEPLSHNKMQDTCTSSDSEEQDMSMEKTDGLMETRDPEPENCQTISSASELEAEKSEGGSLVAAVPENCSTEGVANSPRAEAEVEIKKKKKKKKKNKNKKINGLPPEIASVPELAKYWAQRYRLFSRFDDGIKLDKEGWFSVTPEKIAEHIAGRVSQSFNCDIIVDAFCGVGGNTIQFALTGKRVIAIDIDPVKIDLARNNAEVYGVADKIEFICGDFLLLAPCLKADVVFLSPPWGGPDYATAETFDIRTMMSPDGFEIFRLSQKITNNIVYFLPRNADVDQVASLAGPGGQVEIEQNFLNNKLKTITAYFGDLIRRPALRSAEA
The assay is described as follows: co-IP; TNF-α treated L6 myoblasts (2 ng/ml); 4 mg lysate (120 mM NaCl, 1% Triton X-100, 20 mM Tris-HCl pH 7.5, 10% glycerol, 2 mM EDTA) immunoprecipitated with anti-PIMT, blotted for Med-1, PGC-1α and MEF2A.

Assay [2] addresses T1, PIMT (PRIP Interacting protein with Methyl Transferase domain) (rat (endogenous in L6)). The assay can be described thus: co-IP; un-stimulated L6 myoblasts; 4 mg lysate (120 mM NaCl, 1% Triton X-100, 20 mM Tris-HCl pH 7.5, 10% glycerol, 2 mM EDTA) immunoprecipitated with anti-PIMT, blotted for Med-1, PGC-1α and MEF2A.

On to Med1 (rat (endogenous in L6)), for which the binding entry in assay [1] is given as “no binding (only in TNF-α exposed L6 myoblasts)”; in assay [2] it was “binds”.
